Our source for the binding values is PMC5663849.

Sequences of proteins named here, by UniProt entry; tags and fusion partners are left off. Residues count along the entry.
UniProt P20491, residues 19-86: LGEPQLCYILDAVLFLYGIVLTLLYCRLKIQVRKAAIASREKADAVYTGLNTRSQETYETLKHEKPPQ

The target of this test is FcεRI γ-chain (mouse (endogenous in BMDCs)) (UniProt P20491). As to the kind of experiment: co-IP; WT mouse BMDCs treated with curdlan or dZym (50 µg/mL), harvested at indicated time points; lysates precleared with protein A/G beads (4°C, 2 h), incubated with anti-FcRγ Ab at 4°C for 16 h, protein A/G beads 2 h; SDS-PAGE and Western blot for SHP-1, SHP-2, SHIP-1, PTEN.

No constants are given. Whether binding was seen depends on the method and setting. In cells and extracts the contact can be indirect.

B1: SH2 domain-containing inositol 5′-phosphatase-1 (enzyme, UniProt Q9ES52 1-1191)
chain: MPAMVPGWNHGNITRSKAEELLSRAGKDGSFLVRASESIPRAYALCVLFRNCVYTYRILPNEDDKFTVQASEGVPMRFFTKLDQLIDFYKKENMGLVTHLQYPVPLEEEDAIDEAEEDTVESVMSPPELPPRNIPMSAGPSEAKDLPLATENPRAPEVTRLSLSETLFQRLQSMDTSGLPEEHLKAIQDYLSTQLLLDSDFLKTGSSNLPHLKKLMSLLCKELHGEVIRTLPSLESLQRLFDQQLSPGLRPRPQVPGEASPITMVAKLSQLTSLLSSIEDKVKSLLHEGSESTNRRSLIPPVTFEVKSESLGIPQKMHLKVDVESGKLIVKKSKDGSEDKFYSHKKILQLIKSQKFLNKLVILVETEKEKILRKEYVFADSKKREGFCQLLQQMKNKHSEQPEPDMITIFIGTWNMGNAPPPKKITSWFLSKGQGKTRDDSADYIPHDIYVIGTQEDPLGEKEWLELLRHSLQEVTSMTFKTVAIHTLWNIRIVVLAKPEHENRISHICTDNVKTGIANTLGNKGAVGVSFMFNGTSLGFVNSHLTSGSEKKLRRNQNYMNILRFLALGDKKLSPFNITHRFTHLFWLGDLNYRVELPTWEAEAIIQKIKQQQYSDLLAHDQLLLERKDQKVFLHFEEEEITFAPTYRFERLTRDKYAYTKQKATGMKYNLPSWCDRVLWKSYPLVHVVCQSYGSTSDIMTSDHSPVFATFEAGVTSQFVSKNGPGTVDSQGQIEFLACYATLKTKSQTKFYLEFHSSCLESFVKSQEGENEEGSEGELVVRFGETLPKLKPIISDPEYLLDQHILISIKSSDSDESYGEGCIALRLETTEAQHPIYTPLTHHGEMTGHFRGEIKLQTSQGKMREKLYDFVKTERDESSGMKCLKNLTSHDPMRQWEPSGRVPACGVSSLNEMINPNYIGMGPFGQPLHGKSTLSPDQQLTAWSYDQLPKDSSLGPGRGEGPPTPPSQPPLSPKKFSSSTANRGPCPRVQEARPGDLGKVEALLQEDLLLTKPEMFENPLYGSVSSFPKLVPRKEQESPKMLRKEPPPCPDPGISSPSIVLPKAQEVESVKGTSKQAPVPVLGPTPRIRSFTCSSSAEGRMTSGDKSQGKPKASASSQAPVPVKRPVKPSRSEMSQQTTPIPAPRPPLPVKSPAVLQLQHSKGRDYRDNTELPHHGKHRQEEGLLGRTAMQ
Take B1: the binding entry is given as “no binding”.
